Values quoted from earlier work as cited in patent publication US20160158308A1 (priority 2013, published 2016).
Some entries share one result that the patent states for a list of compounds.

Tested on: Mycobacterium tuberculosis
Conditions: general statement, concentration not given

## CC(=O)N[C@@H](CS)C(=O)O [NAC, N-acetyl cysteine]
  growth of the organisms limited to a level: below 1000 CFU/ml
